{"source": "patent EP0528854B1", "about": "“FLUOROGENIC PEPTIDES AND THEIR USE IN THE DETERMINATION OF ENZYMATIC ACTIVITIES” (CARLSBERG A/S, priority 1990, dated 1994)", "system": "pepsin", "assay": "Hydrolysis under acidic conditions by pepsin (fluorescence progress curve)", "type": "biochemical", "settings": "pepsin (5µl, 0.1 mg/ml), 50 mM formic acid, pH 3.4, 1 1/2 hour, peptide 0.5µm", "note": "Part of at least one peptide drawing is inferred or uncertain, most often the ends. Where a SMILES comes first, the peptide text is derived from it. [ ]: non-standard residue; d: D form. Tyr(3-NO2) = N[C@@H](Cc1ccc(O)c([N+](=O)[O-])c1)C(=O)O; 2Abz = Nc1ccccc1C(=O)O", "data": [{"smiles": "C[C@H](NC(=O)CNC(=O)c1ccccc1N)C(=O)N[C@@H](C)C(=O)N[C@@H](Cc1ccccc1)C(=O)N[C@@H](Cc1ccccc1)C(=O)N[C@@H](Cc1ccc(O)c([N+](=O)[O-])c1)C(=O)N[C@@H](CC(=O)O)C(=O)O", "note": "[ABz-Gly-Ala-Ala-Phe-Phe-Tyr(NO₂)-Asp-OH] (H-[2Abz]GAAFF[Tyr(3-NO2)]D-OH)", "values": [{"measurement": "increase in fluorescence following hydrolysis", "value": 10, "unit": "fold"}]}]}
